Results reported in paper PMC8255064.
These are yes or no findings as the source states them, for the method shown. Binding seen in cells or lysates may run through a third protein. Some results given as binding are weak or reduced against the parent protein; the word gives no strength.

Amino acid sequences for entries named in this document (tags omitted).
UniProt O15105: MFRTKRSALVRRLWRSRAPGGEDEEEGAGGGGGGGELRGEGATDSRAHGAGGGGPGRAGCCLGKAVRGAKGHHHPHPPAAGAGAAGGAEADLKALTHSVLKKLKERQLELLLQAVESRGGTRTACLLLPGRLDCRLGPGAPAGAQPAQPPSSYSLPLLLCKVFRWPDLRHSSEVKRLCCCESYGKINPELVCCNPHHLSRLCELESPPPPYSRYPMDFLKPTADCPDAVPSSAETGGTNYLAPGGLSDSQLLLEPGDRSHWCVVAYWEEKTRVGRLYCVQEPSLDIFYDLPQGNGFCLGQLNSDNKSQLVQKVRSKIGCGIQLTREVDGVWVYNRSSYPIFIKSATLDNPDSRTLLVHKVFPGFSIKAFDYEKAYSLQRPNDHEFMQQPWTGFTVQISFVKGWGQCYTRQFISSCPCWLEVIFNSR
UniProt Q9HAU4: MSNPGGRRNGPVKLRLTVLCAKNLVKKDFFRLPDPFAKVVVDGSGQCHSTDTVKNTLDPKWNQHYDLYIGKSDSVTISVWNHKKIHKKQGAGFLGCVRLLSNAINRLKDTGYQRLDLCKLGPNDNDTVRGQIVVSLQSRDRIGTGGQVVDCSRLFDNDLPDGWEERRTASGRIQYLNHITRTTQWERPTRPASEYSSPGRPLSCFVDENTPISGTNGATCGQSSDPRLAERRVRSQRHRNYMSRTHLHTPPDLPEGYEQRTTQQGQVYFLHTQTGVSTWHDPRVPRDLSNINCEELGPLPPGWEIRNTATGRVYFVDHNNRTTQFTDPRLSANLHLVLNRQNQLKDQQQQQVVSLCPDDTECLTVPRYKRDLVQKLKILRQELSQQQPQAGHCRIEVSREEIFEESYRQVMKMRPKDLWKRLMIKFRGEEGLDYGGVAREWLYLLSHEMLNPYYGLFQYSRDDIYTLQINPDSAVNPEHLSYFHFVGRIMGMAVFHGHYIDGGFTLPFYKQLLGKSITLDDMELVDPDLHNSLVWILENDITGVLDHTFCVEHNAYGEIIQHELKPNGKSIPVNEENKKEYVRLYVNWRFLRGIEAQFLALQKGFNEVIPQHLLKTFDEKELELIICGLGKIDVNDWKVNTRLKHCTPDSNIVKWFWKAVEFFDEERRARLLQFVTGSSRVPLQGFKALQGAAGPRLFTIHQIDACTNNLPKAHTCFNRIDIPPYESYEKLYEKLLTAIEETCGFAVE

Molecular target: Smad7 (human (endogenous in LX-2)) (UniProt O15105)
Assay: co-IP; LX-2 cell lysates incubated with anti-Smad7 at 4°C for 6 h, then Protein A/G agarose beads overnight; blots of the precipitate; cells treated with or without 5 ng/ml TGF-β1 along with 1 mg/ml CKI for 12 h

Row | Molecule | binding
1 | Smurf2 (from UniProt Q9HAU4 1-748) | binds
2 | TGF-β receptor type 1 (receptor, UniProt P36897 34-503) LQCFCHLCTKDNFTCVTDGLCFVSVTETTDKVIHNSMCIAEIDLIPRDRPFVCAPSSKTGSVTTTYCCNQDHCNKIELPTTVKSSPGLGPVELAAVIAGPVCFVCISLMLMVYICHNRTVIHHRVPNEEDPSLDRPFISEGTTLKDLIYDMTTSGSGSGLPLLVQRTIARTIVLQESIGKGRFGEVWRGKWRGEEVAVKIFSSREERSWFREAEIYQTVMLRHENILGFIAADNKDNGTWTQLWLVSDYHEHGSLFDYLNRYTVTVEGMIKLALSTASGLAHLHMEIVGTQGKPAIAHRDLKSKNILVKKNGTCCIADLGLAVRHDSATDTIDIAPNHRVGTKRYMAPEVLDDSINMKHFESFKRADIYAMGLVFWEIARRCSIGGIHEDYQLPYYDLVPSDPSVEEMRKVVCEQKLRPNIPNRWQSCEALRVMAKIMRECWYANGAARLTALRIKKTLSQLSQQEGIKM | binds
